Measured values as given in paper PMC8673836.
Residue numbers refer to the chain shown, from its start. These are yes or no findings as the source states them, for the method shown. In cells and extracts the contact can be indirect. Some entries that bind do so weakly or less than the wild type. For part of these data: Where a sequence is shown, tags or fusion partners need not be part of it. Each block holds one substance with its values, some of them ahead of it.

Sequences of proteins named here, by UniProt entry; tags and fusion partners are left off.
UniProt Q16665: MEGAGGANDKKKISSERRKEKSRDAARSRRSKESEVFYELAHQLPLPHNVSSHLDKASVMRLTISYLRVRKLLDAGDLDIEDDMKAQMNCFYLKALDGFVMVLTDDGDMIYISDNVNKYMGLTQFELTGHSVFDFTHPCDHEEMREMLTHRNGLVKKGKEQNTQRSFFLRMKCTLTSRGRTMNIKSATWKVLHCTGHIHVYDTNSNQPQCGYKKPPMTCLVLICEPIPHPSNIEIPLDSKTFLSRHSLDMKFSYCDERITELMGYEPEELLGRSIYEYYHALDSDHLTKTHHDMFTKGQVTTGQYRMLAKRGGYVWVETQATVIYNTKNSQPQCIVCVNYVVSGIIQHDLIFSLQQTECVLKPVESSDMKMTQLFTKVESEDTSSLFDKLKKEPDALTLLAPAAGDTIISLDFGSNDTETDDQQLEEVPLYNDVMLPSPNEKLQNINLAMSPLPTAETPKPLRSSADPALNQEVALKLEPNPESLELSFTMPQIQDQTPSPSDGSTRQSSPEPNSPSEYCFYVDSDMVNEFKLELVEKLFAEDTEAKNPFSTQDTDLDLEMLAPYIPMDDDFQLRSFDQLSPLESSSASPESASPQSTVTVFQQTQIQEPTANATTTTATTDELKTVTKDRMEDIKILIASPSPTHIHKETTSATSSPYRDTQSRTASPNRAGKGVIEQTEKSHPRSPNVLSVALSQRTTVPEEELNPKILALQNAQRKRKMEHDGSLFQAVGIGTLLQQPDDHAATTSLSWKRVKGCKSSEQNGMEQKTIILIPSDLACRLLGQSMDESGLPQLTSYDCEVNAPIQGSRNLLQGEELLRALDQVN
UniProt Q99814: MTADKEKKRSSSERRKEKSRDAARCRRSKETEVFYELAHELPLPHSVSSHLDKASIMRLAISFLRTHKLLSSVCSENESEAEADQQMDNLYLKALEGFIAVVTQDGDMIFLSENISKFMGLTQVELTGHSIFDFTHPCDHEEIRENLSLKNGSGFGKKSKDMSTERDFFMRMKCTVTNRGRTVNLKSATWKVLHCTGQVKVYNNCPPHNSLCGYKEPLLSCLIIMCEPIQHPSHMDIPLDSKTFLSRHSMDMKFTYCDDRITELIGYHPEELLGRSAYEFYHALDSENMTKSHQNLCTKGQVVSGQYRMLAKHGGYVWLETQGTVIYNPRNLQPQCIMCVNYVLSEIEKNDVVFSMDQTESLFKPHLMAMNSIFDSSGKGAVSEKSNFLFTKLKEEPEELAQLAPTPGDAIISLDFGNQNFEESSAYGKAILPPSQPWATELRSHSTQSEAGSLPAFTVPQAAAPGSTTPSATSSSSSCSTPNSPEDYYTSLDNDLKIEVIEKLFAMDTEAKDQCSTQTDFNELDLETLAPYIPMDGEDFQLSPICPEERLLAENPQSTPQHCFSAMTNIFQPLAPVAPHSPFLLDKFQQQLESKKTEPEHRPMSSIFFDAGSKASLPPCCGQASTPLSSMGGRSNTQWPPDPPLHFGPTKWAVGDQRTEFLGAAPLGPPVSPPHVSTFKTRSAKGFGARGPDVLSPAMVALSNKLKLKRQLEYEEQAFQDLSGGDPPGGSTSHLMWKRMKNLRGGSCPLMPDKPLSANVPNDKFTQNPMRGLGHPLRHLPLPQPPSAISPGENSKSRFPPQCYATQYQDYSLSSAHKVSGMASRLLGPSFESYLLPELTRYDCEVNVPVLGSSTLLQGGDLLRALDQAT
UniProt P27540: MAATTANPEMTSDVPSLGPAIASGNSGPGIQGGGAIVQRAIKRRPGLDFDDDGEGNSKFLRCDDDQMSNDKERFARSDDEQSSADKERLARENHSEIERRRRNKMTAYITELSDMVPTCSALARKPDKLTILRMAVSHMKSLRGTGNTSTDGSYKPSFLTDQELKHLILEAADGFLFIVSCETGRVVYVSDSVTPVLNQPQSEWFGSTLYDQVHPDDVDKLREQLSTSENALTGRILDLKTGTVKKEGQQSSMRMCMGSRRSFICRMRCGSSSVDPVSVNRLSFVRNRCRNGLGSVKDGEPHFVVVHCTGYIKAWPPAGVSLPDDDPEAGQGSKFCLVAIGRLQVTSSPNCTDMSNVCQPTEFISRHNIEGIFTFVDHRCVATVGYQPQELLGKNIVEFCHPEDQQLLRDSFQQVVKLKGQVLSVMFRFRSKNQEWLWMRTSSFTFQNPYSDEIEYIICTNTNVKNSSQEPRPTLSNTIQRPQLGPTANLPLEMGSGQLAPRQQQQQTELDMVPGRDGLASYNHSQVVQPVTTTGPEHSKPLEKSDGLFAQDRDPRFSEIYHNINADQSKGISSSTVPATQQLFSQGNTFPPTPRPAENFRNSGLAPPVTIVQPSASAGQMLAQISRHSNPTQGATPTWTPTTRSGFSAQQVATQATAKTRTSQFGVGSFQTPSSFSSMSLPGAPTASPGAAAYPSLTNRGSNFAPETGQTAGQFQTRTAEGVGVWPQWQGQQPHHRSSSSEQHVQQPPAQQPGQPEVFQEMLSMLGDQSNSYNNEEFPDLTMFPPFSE

Columns and labels:
[1] = biological target: T1, ZHX2 (endogenous) (human (endogenous in MDA-MB-231 and MDA-MB-468)) (UniProt Q9Y6X8); experiment: co-IP; endogenous IP of MDA-MB-231 cells treated with DMOG for 8 hr
T1 sequence: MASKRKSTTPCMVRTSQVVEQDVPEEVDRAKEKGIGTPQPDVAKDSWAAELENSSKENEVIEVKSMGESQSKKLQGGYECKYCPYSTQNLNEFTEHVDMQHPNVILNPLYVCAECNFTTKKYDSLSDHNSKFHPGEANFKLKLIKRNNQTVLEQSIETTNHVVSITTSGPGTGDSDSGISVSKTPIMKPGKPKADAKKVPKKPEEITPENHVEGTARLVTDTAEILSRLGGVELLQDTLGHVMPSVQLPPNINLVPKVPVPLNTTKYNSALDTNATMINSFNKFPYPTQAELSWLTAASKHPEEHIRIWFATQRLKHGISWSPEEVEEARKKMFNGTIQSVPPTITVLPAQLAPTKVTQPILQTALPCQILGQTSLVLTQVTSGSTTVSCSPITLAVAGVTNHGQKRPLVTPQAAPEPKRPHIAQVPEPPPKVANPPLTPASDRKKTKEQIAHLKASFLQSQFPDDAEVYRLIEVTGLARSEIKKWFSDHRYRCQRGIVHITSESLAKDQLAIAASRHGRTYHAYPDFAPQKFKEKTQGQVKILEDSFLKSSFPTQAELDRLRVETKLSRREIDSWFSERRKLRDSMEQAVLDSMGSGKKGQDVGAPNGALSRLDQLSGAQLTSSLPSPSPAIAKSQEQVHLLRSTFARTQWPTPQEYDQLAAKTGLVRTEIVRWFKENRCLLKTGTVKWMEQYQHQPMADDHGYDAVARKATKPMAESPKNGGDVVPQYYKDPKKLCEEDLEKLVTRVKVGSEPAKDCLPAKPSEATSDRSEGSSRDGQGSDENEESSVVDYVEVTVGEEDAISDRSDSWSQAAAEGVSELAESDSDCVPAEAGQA

[2] = biological target: T2, FLAG-HA-ZHX2 (R581A) (human) (UniProt Q9Y6X8); experiment: co-IP; IP of MDA-MB-231 cells infected with lentivirus encoding either ZHX2 WT or mutation
T2 sequence: T1 sequence with R581A

[3] = biological target: T3, FLAG-HA-ZHX2 (R674A) (human) (UniProt Q9Y6X8); experiment: as above
T3 sequence: T1 sequence with R674A

[4] = biological target: T4, FLAG-HA-ZHX2 (WT), Zinc Fingers and Homeoboxes 2 (human) (UniProt Q9Y6X8); experiment: as above
T4 sequence: T1 sequence

[5] = biological target: T4, FLAG-HA-ZHX2 (WT), Zinc Fingers and Homeoboxes 2 (human); experiment: co-IP; IP with HA beads of MDA-MB-231 cells overexpressing either HA-ZHX2 or HA-HIF1α, immunoblots with indicated antibodies
[6] = biological target: T4, FLAG-HA-ZHX2 (WT), Zinc Fingers and Homeoboxes 2 (human); experiment: co-IP; IP of cell lysates from MDA-MB-231 cells infected with lentivirus encoding control vector (EV) or ZHX2
[7] = biological target: T4, FLAG-HA-ZHX2 (WT), Zinc Fingers and Homeoboxes 2 (human); experiment: co-IP; IP and immunoblots with indicated antibodies of MDA-MB-231 cells overexpressing HA-ZHX2 and HA-HIF1α

binding [1]: binds
binding [2]: binds
binding [3]: binds
binding [4]: binds
binding [5]: binds
Substance: HIF1α (endogenous), hypoxia-inducible factor 1 alpha (from UniProt Q16665 1-826)

binding [6]: no binding
Substance: HIF2α (endogenous) (from UniProt Q99814 1-870)

binding [7]: binds
Substance: HA-HIF1α (from UniProt Q16665 1-826)

binding [1]: binds
binding [5]: binds
Substance: HIF1β (endogenous) (from UniProt P27540 1-789)
